# Source: patent publication US12383628B2 (priority 2016, dated 2025)
# Tested on: L929 mouse fibroblasts
# Test: Cytotoxicity, Live/Dead viability staining on hydrogels (Example 9)
# Format: cell-based
# Settings: 24 h after seeding
# Description: Hydrogels were prepared at 1, 2 or 3 mg/100 μL as duplicate in a 96-well ULA plate (Cat #CORN3474; Corning-Costar, 60 μL each well). The gels were photographed and pre-equilibrated before seeding with cells. For equilibration, gels were incubated at room temperature in 40 μL of L929 culture medium with double-strength Anti-Anti (Cat #15240062, GIBCO) for 2 h prior to seeding with cells. The equilibration medium was removed before cell seeding and retained to examine if the gels dissolved (even partially) or disintegrated into the culture medium. Next, […] mouse fibroblasts (ATCC) were seeded onto hydrogels at a concentration of 200,000 cells/ml in a volume of 50 μl. The cells were photographed immediately after seeding, observed by microscopy 2 h post-seeding and then observed and photographed at 24 h post-seeding. The cell culture medium consisted of MEM+GlutaMAX I (Cat #41090-036; GIBCO); 10% foetal bovine serum (Cat #12003C; SAFC, Sigma), 2× Anti-Anti (Cat #[…]) and 1× Non-Essential Amino Acids (Cat #41090-036; GIBCO).
# Bright field microscopy was performed through use of a IX71 inverted microscope with NIS-Elements F3.0 imaging software (Olympus). The TE2000 Eclipse fluorescent microscope with NIS-Elements AR3.2 software (Nikon) was used for fluorescence imaging microscopy. Automated cell counting was performed on the NC-200 NucleoCounter using proprietary lysis and stabilising reagents and cassettes (ChemoMetec).
# The viability and distribution of cells was assessed using a LIVE/DEAD Viability/Cytotoxicity Kit *for Mammalian cells* (Live-Dead Kit), (Cat #13224; Molecular Probes). Briefly, a working solution of live/dead solution was made as per manufacturer's instructions by adding 1.25 μl of Calcein AM (solution A) to 2.5 ml of pre-warmed PBS. The solution was thoroughly mixed by vortex and 2.5 μl of Ethidium homodimer (solution B), was added before vortexing a second time to mix. Excess medium was removed and the gels rinsed with 20 μl of warm PBS before a 40 μl of Live/Dead kit working solution was added to each well. The plate was incubated in a 37° C. cell culture incubator for 20 min before viewing using a fluorescent microscope. Green fluorescence was emitted from the cytoplasm of viable cells (excitation/emission ˜495 nm/˜515 nm) while dead cell nuclei fluoresced red (excitation/emission ˜495/˜635 nm) allowing a distinction to be made between viable and dead cells.
row,Molecule,Cell morphology on hydrogel
1,"KFQFEF-NH2 [peptide 18, H-Lys-Phe-Gln-Phe*-Glu-Phe-NH2]",slightly rounded
2,"NCCCC[C@@H](N)C(=O)N[C@H](Cc1ccccc1)C(=O)N[C@H](CCC(N)=O)C(=O)N[C@H](Cc1ccccc1)C(=O)N[C@H](CCC(=O)O)C(=O)N[C@H](Cc1ccccc1)C(N)=O [peptide 24, H-DLys-DPhe-DGln-DPhe*-DGlu-DPhe-NH2] (H-[dK][dF][dQ][dF][dE][dF]-NH2)",slightly rounded
3,"WEWQWK-NH2 [peptide 12, H-Trp-Glu-Trp*-Gln-Trp-Lys-NH2]",clear instances of attachment and spreading
4,"NCCCC[C@H](NC(=O)[C@H](Cc1ccccc1)NC(=O)[C@H](CCC(N)=O)NC(=O)[C@H](Cc1ccccc1)NC(=O)C[C@H](Cc1ccccc1)NC(=O)[C@H](CCC(=O)O)NC(=O)[C@@H](N)Cc1ccccc1)C(N)=O [peptide 27, H-Phe-Glu-13;;-homo-Phe-Phe-Gln-Phe-Lys-NH2] (H-FE[β3hF]FQFK-NH2)",slightly rounded
5,"FEFQFK-NH2 [peptide 2, H-Phe-Glu-Phe*-Gln-Phe-Lys-NH2]",slightly rounded
6,"FQFQFK-NH2 [peptide 16, H-Phe-Gln-Phe*-Gln-Phe-Lys-NH2]",clear instances of attachment and spreading

# Square brackets hold non-standard residues; d marks the D form. Ends that are not written are not given here. Peptide text beside a SMILES is read from it. β3hF = N[C@H](CC(=O)O)Cc1ccccc1
